# The other results are listed elsewhere or left out.
# Amino acid sequences for entries named in this document (tags omitted).
# UniProt Q0JBA9, entry or part of it: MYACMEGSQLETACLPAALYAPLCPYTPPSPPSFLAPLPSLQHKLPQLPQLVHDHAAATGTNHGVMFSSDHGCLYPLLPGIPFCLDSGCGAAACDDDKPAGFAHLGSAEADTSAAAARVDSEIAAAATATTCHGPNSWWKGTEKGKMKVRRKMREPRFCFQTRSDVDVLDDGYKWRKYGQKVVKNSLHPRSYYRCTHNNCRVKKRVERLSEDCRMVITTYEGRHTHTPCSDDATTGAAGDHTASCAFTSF
# Target: OsWRKY34 (Oryza sativa, UniProt Q0JBA9 1-250)
# Assay: protein-binding microarray (RPBM); PBS, 2% BSA, 51.3 ng/ul salmon testes DNA, 50 uM zinc acetate, 200 nM TF, 25 C, 1 h; high values mean tight binding
# Settings: protein: recombinant; tags: N-terminal polyhistidine and DsRed monomer fusion (pET32a); label: CyDye5-dUTP incorporated in the synthesized complementary strand; 3' TTTTT single-stranded linker to array surface; dsDNA, one strand shown
# Summary of the method: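 Using Ni–NTA, transcription factors fused N-terminally to polyhistidine and DsRed were purified after expression in E. coli BL21-CodonPlus. These were incubated at 200 nM with a blocked, double-stranded custom Agilent array for 1 h at 25 °C in a buffer containing 50 µM zinc acetate, and the array was washed. The binding signal is per-feature fluorescence intensity (arbitrary units) on an Axon 4000B scanner.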
row,Sequence,binding signal
1,CTCCACTGCCTGCCTCCGGCCCTATCCGAGCTGCTTTTCACGGAGTCACCTAGTGCAG,8900 fluorescence intensity (a.u.)
2,CGTCTCCAGAACCGCCTCTCTCCACCACCTCTCCTCGCCTCGGAGTCACCTAGTGCAG,8460 fluorescence intensity (a.u.)
3,GCCCATTGCCCCGCGTCGCTTCGTCTCCTCACCCCGCTGCCGGAGTCACCTAGTGCAG,10600 fluorescence intensity (a.u.)
4,GTTGCCCTTTTGCTCCTGTTGTCTTCTCCGCTCCTGTCGTCGGAGTCACCTAGTGCAG,9800 fluorescence intensity (a.u.)
5,GCAGCTTCTTTTTCACCCTGGTTTTCGCTTGTACTTCACACGGAGTCACCTAGTGCAG,11800 fluorescence intensity (a.u.)
6,AAAAACAAATTCTCACTGACTCTGCTTACCATCTGTTTTTCGGAGTCACCTAGTGCAG,11000 fluorescence intensity (a.u.)
7,CTCTTGTCACCATGTTCATCCTTAATTCTGCTGGTTTGGACGGAGTCACCTAGTGCAG,8890 fluorescence intensity (a.u.)
8,GTGGGTACGGTCGGATTATGGGGTTGGGATTTCAATAATACGGAGTCACCTAGTGCAG,13700 fluorescence intensity (a.u.)
9,CAGTGGATCATTCTCCATTCGGGTGTTCTTAACTTATGTACGGAGTCACCTAGTGCAG,10600 fluorescence intensity (a.u.)
10,TGCTCTGTTGTCGCCGTCTTTCCGCTGCTCCTTCCTTGAGCGGAGTCACCTAGTGCAG,11800 fluorescence intensity (a.u.)
11,GGTGTGCATAGATGCGTGGTGTTTGTGACCTCTCGTTGTACGGAGTCACCTAGTGCAG,8400 fluorescence intensity (a.u.)
12,TCCCCTGCTGCTTCGCGCAACATATTTACTATCTTTGTACCGGAGTCACCTAGTGCAG,12900 fluorescence intensity (a.u.)
13,GGGGTATAGTTAGTTAGTTGTGCTTAGTCCAAATTAGGCCCGGAGTCACCTAGTGCAG,10800 fluorescence intensity (a.u.)
14,TACCCTCGGTTCTCGCGGATTATTACCGTTTTCTTCCCGCCGGAGTCACCTAGTGCAG,8530 fluorescence intensity (a.u.)
15,TAATTTATCTATTTGATACCACTTTCTCTGTTTTTCATGTCGGAGTCACCTAGTGCAG,8160 fluorescence intensity (a.u.)
16,TTTAATTTTTTTTACAATCGATATTTTTTATCTCAAACAACGGAGTCACCTAGTGCAG,9040 fluorescence intensity (a.u.)
17,CGTGTCGTCCCAATCCGCCACGTCCTCGCCCAAAGCTCCACGGAGTCACCTAGTGCAG,9420 fluorescence intensity (a.u.)
18,AACTTTTAACTTTTACATTGCATCAAAATTTTCCTACACACGGAGTCACCTAGTGCAG,8690 fluorescence intensity (a.u.)
19,CGCTGCCACCATTGCCGAGCCCGCCGCCATCGCCCGAGCCCGGAGTCACCTAGTGCAG,9580 fluorescence intensity (a.u.)
20,TGATAATAATTATTTCTTGGTCTGTGGGTTAGGGATGGTTCGGAGTCACCTAGTGCAG,9540 fluorescence intensity (a.u.)
21,AGTCACCTCCAACCGCTCGTGTTTTTTTTTTCTTTTTAGGCGGAGTCACCTAGTGCAG,8650 fluorescence intensity (a.u.)

row,Sequence,binding signal
1,TCTCTCGTATCTGCATCCTGACCGTCAAACAAGATTACACCGGAGTCACCTAGTGCAG,8380 fluorescence intensity (a.u.)
2,AATTCTCAAACCACAACACACACACACAAACAGTTGGTCCCGGAGTCACCTAGTGCAG,8400 fluorescence intensity (a.u.)
3,AAACTGCCAAAACCGCCACGTCCGTAGCACGCTAAAACCTCGGAGTCACCTAGTGCAG,9680 fluorescence intensity (a.u.)
4,TAATGTGGTCGCTTGTTTGTTGTGTCTGAACATTTTCTTCCGGAGTCACCTAGTGCAG,13100 fluorescence intensity (a.u.)
5,TCTCTTATTTTCTTCCCCTGTTATGTCTGAAACTCTGAATCGGAGTCACCTAGTGCAG,8720 fluorescence intensity (a.u.)
6,CGGAGTCGGAGCTCTAGCTTGGTTCATCGGTTGCATACTTCGGAGTCACCTAGTGCAG,8120 fluorescence intensity (a.u.)
7,GTGGTTTGCAGCAGGTGAGCAGGATGGGTGTGGATGATTGCGGAGTCACCTAGTGCAG,10300 fluorescence intensity (a.u.)
8,CCGAATCCATTTCCAATAATCCATTTCGCCACGATTTGTTCGGAGTCACCTAGTGCAG,8180 fluorescence intensity (a.u.)
9,TACGCTAGTCACTAGTACGGGGCGGCAGGGGATAAATGAACGGAGTCACCTAGTGCAG,10300 fluorescence intensity (a.u.)
10,ACTCCGGCGGGTTAGGGTTTGGGGTTGGGGTGAGGGTAGGCGGAGTCACCTAGTGCAG,10900 fluorescence intensity (a.u.)
11,ATTCCTGGAGTGGATAGTCGCTTATTTCTTGCATGTCATCCGGAGTCACCTAGTGCAG,9550 fluorescence intensity (a.u.)
12,AGTGCTTATTTAATTCGCTAGGTAGTTCCCTGGCCTTGACCGGAGTCACCTAGTGCAG,8610 fluorescence intensity (a.u.)
13,CCTCGAATTCGTTTTATTTTTTGTTCCACCAAAAATGTTTCGGAGTCACCTAGTGCAG,8680 fluorescence intensity (a.u.)
14,ACGTGTCCTTGTTTCCCATTAATACGTTTTTTAAACCACTCGGAGTCACCTAGTGCAG,12100 fluorescence intensity (a.u.)
15,TTTGCGTCGCCTTTCATTTTGGATGTTTCAATTTGAATACCGGAGTCACCTAGTGCAG,10400 fluorescence intensity (a.u.)
16,GGGGCTAGGGTTTGGGTGGGATCTCAGCCGTCGGATCTGACGGAGTCACCTAGTGCAG,17000 fluorescence intensity (a.u.)
17,ACCATCCATTCGATCGGTTTAGATCCGGCGCGCGCCGGACCGGAGTCACCTAGTGCAG,9240 fluorescence intensity (a.u.)
18,TTATGTTTTTCACATGTTCTCGCATTGCAATCCATACTTACGGAGTCACCTAGTGCAG,10400 fluorescence intensity (a.u.)
19,AATACTATCACATCCGCATTCACATACCTCTACCATACAACGGAGTCACCTAGTGCAG,8930 fluorescence intensity (a.u.)
20,CAAATTCCTTCAGTTCCATGCCTACAGAGTTGCCGTCTGCCGGAGTCACCTAGTGCAG,8790 fluorescence intensity (a.u.)
21,TCTTTTGTCCATCTATTTCAAACTTCTACTCGACCTTAAACGGAGTCACCTAGTGCAG,9080 fluorescence intensity (a.u.)

row,Sequence,binding signal
1,GCCCTCGCGCCACGTGGAGGTCACCTCCCATTTCCTCGTCCGGAGTCACCTAGTGCAG,8450 fluorescence intensity (a.u.)
2,TCAATCTTTCAATGTTTCTTCACTTGGTCACTGCCCTCATCGGAGTCACCTAGTGCAG,9060 fluorescence intensity (a.u.)
3,TCGTCTCCGGCCTTTTCTTGCTCTCCTCGTCTTCTTCCTCCGGAGTCACCTAGTGCAG,13200 fluorescence intensity (a.u.)
4,ACCATTTAACTCACCATGTTTATGTTGAATTGCTAGCTATCGGAGTCACCTAGTGCAG,10200 fluorescence intensity (a.u.)
5,TTTTGCCAATGACCAACGATTGATCCTAAGAATTGCCATACGGAGTCACCTAGTGCAG,8370 fluorescence intensity (a.u.)
6,TCCTGTTATTACTCCCCTAAGCTGGCGCCAGCTCAAGCACCGGAGTCACCTAGTGCAG,8150 fluorescence intensity (a.u.)
7,AGATCTATACATGTAATAGGTGAGTTCCTTCCTGTTTTCTCGGAGTCACCTAGTGCAG,8580 fluorescence intensity (a.u.)
8,AAGCCCAAAGACCCAATCTTTCCTTAGAAATTTAATTTTTCGGAGTCACCTAGTGCAG,8040 fluorescence intensity (a.u.)
9,CGGCTCGCCGACTTCGCTCGCCTTCCTGCCGTCGCCTCCGCGGAGTCACCTAGTGCAG,8280 fluorescence intensity (a.u.)
10,CCCTCTCTCTCTCTCTCTCTCTCTCTCTCTCTCTCTCTCTCGGAGTCACCTAGTGCAG,10800 fluorescence intensity (a.u.)
11,CTGACATGTGAGTCCCATTACCCTCGTGCCTATATGTAAGCGGAGTCACCTAGTGCAG,8060 fluorescence intensity (a.u.)
12,CCACTTTCCCATGAGTGCTTTGTTCATGACTTTCTGGTCTCGGAGTCACCTAGTGCAG,9390 fluorescence intensity (a.u.)
13,GCCTCCGTCCGTCCGTCCGTCTCTCTCTCTCTCTCTTCTTCGGAGTCACCTAGTGCAG,8860 fluorescence intensity (a.u.)
14,TCCCGAGCCCATTGCAACCCCAATGCTTATAGGCCTTATGCGGAGTCACCTAGTGCAG,9110 fluorescence intensity (a.u.)
15,ATCGATTGTGTAGTTCTTTGATCGCATCTGGGAGTTATCACGGAGTCACCTAGTGCAG,8320 fluorescence intensity (a.u.)
16,TCATTGTTAAGCCGTTGTTATGTACTCCCTCCATTTTTTACGGAGTCACCTAGTGCAG,12500 fluorescence intensity (a.u.)
17,GATATATCCGGGTGGTTTTTTCGCACTTATGTTTGTTTATCGGAGTCACCTAGTGCAG,9050 fluorescence intensity (a.u.)
18,AAGCTTGGACGACGCTTTCAATGTACTTGTCCGGCAAACACGGAGTCACCTAGTGCAG,9250 fluorescence intensity (a.u.)
19,CGCCGCGTAAGCTTTCCTTCCCGTTCACTCCCAGGCTCTCCGGAGTCACCTAGTGCAG,9060 fluorescence intensity (a.u.)
20,CGTGTTGTTATGGGGTAGTATATCATCAGATGTTGGAACCCGGAGTCACCTAGTGCAG,8770 fluorescence intensity (a.u.)
21,GGGTAGGAGGAGGTAATTGAGAGGTAATTCCTCCTTTAATCGGAGTCACCTAGTGCAG,9220 fluorescence intensity (a.u.)

row,Sequence,binding signal
1,GTACGTTCGCGCGCATGCTACATGCATGCATGCACATCGACGGAGTCACCTAGTGCAG,9380 fluorescence intensity (a.u.)
2,CACAAACTTCCAACTTTTCCGTCACATCGTTCCAATTTCACGGAGTCACCTAGTGCAG,12400 fluorescence intensity (a.u.)
3,GTGCTTACGTGCTAGTTAGTGCTAATAATTACTCACCATGCGGAGTCACCTAGTGCAG,8060 fluorescence intensity (a.u.)
4,ACCTTGGCCTGCATGTCGCGGAGGGCCGCGGCCTCTTCCTCGGAGTCACCTAGTGCAG,8070 fluorescence intensity (a.u.)
5,ACCACTCCGGTCCGACTCCGACCCGAACCCCATCTCCTCTCGGAGTCACCTAGTGCAG,13400 fluorescence intensity (a.u.)
6,CTAAGTTCATACTTTTGGACAGGGTTGACTTTACTTCTTTCGGAGTCACCTAGTGCAG,9900 fluorescence intensity (a.u.)
7,TTGCCGTACAATCTTGATTTGGAGATCTTCCTGGCCAACACGGAGTCACCTAGTGCAG,9120 fluorescence intensity (a.u.)
8,CTCTCGTCTTCTCGTCTCGTCTTTGGCTGTGATTTGACGCCGGAGTCACCTAGTGCAG,11700 fluorescence intensity (a.u.)
9,CACAGCCTCAACACCCTGATACCATAATTCAACTCTGGCACGGAGTCACCTAGTGCAG,10600 fluorescence intensity (a.u.)
10,TGTCCCATCCGATACGACATGTCAGTCTCACTCCTCTCTTCGGAGTCACCTAGTGCAG,8570 fluorescence intensity (a.u.)
11,AGCCTCTACGCAACCATTACCTACTATTTGAATCGTTTTCCGGAGTCACCTAGTGCAG,9170 fluorescence intensity (a.u.)
12,TGCTTTTTTTTTTCCTTTCTAGCATTTGTTGTTTTGCGCACGGAGTCACCTAGTGCAG,16300 fluorescence intensity (a.u.)
13,GTGGAGTCGTTGTGTTCATGTCATTTGAGAATCTCATACCCGGAGTCACCTAGTGCAG,10500 fluorescence intensity (a.u.)
14,AGATCTTCCAGGCCAGTGTGTGTTTTTCACATCAACGCATCGGAGTCACCTAGTGCAG,9080 fluorescence intensity (a.u.)
15,GTCCCTCATTTTGTCGCCCAGATTTTTGTCAGAACAAACACGGAGTCACCTAGTGCAG,12200 fluorescence intensity (a.u.)
16,GAGCTTCACACACATATATTGGTAGATTATATTAGGTTTTCGGAGTCACCTAGTGCAG,8800 fluorescence intensity (a.u.)
17,TCTCCCTCTCTCTCTCCACCGCGCCGGCCCGGTTCGACTCCGGAGTCACCTAGTGCAG,8060 fluorescence intensity (a.u.)
18,GTCTCGTATCATCTCATCTCATCACATCAGCACACATCACCGGAGTCACCTAGTGCAG,10600 fluorescence intensity (a.u.)
19,CTAAATGTTTAACGCCGTTGACTTTTTAAAACATATTTGACGGAGTCACCTAGTGCAG,13400 fluorescence intensity (a.u.)
20,ACTATTACTTCTATTTTCTAGTATTTTTTTTTGTTTCTCTCGGAGTCACCTAGTGCAG,13500 fluorescence intensity (a.u.)
21,AGCATTAACTACATTGTCATGTTGGACTTTTATCTTATGTCGGAGTCACCTAGTGCAG,10800 fluorescence intensity (a.u.)

# Part of the list above, bar-delimited:
row | Sequence | binding signal
5 | ACCACTCCGGTCCGACTCCGACCCGAACCCCATCTCCTCTCGGAGTCACCTAGTGCAG | 13400 fluorescence intensity (a.u.)
6 | CTAAGTTCATACTTTTGGACAGGGTTGACTTTACTTCTTTCGGAGTCACCTAGTGCAG | 9900 fluorescence intensity (a.u.)
7 | TTGCCGTACAATCTTGATTTGGAGATCTTCCTGGCCAACACGGAGTCACCTAGTGCAG | 9120 fluorescence intensity (a.u.)

# Source: article PMC7819943, “Rice protein-binding microarrays: a tool to detect cis-acting elements near promoter regions in rice”
